Data as given in PubChem BioAssay AID493246 (Drosophila RNAi Screening Center, 2011)
Purpose: 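Identify essential fly genes by loss of cell viability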 (primary screen). Cells: Drosophila Kc and S2R+ cells. Knock-down reagent: long dsRNA against Drosophila genes. Read-out: 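Cell number per well after knock-down, printed as raw plate values; calls were based on per-plate z-scores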. Scale: Kc cell number and S2R+ cell number: higher = more cells remaining. Hit rule: 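Counted as a hit if cell number falls by a z-score of at least 3 within its plate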.
In all, the deposit lists about 21,000 reagents; below is an unselected part of those that have a named target and a result. Over the whole deposit, 429 (2%) were called active. 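Values are raw and not normalised between plates; calls rest on per-plate z-scores that were not deposited.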 Entries without a mark were called inactive. No sequences are given here. Not given: the amount of reagent, the time to read-out.

{"gene knocked down": "pnr", "amplicon": "DRSC17027", "Kc cell number, rep 1": 1.55e6, "Kc cell number, rep 2": 1.60e6, "S2R+ cell number, rep 1": 1.11e6, "S2R+ cell number, rep 2": 1.21e6}
{"gene knocked down": "CG12744", "amplicon": "DRSC06164", "Kc cell number, rep 1": 1.32e6, "Kc cell number, rep 2": 1.36e6, "S2R+ cell number, rep 1": 1.11e6, "S2R+ cell number, rep 2": 1.17e6}
{"gene knocked down": "slbo", "amplicon": "DRSC04716", "Kc cell number, rep 1": 1.55e6, "Kc cell number, rep 2": 1.64e6, "S2R+ cell number, rep 1": 1.33e6, "S2R+ cell number, rep 2": 1.36e6}
{"gene knocked down": "RhoGAP19D", "amplicon": "DRSC20499", "Kc cell number, rep 1": 1.63e6, "Kc cell number, rep 2": 1.64e6, "S2R+ cell number, rep 1": 9.89e5, "S2R+ cell number, rep 2": 1.04e6}
{"gene knocked down": "RhoGAP19D", "amplicon": "DRSC20500", "Kc cell number, rep 1": 1.53e6, "Kc cell number, rep 2": 1.63e6, "S2R+ cell number, rep 1": 1.11e6, "S2R+ cell number, rep 2": 1.20e6}
{"gene knocked down": "me31B", "amplicon": "DRSC03569", "Kc cell number, rep 1": 9.69e5, "Kc cell number, rep 2": 1.00e6, "S2R+ cell number, rep 1": 9.76e5, "S2R+ cell number, rep 2": 1.08e6}
{"gene knocked down": "CG9973 (retired record)", "amplicon": "DRSC08646", "Kc cell number, rep 1": 1.67e6, "Kc cell number, rep 2": 1.03e6, "S2R+ cell number, rep 1": 1.02e6, "S2R+ cell number, rep 2": 1.14e6}
{"gene knocked down": "CG34040", "amplicon": "DRSC03902", "Kc cell number, rep 1": 5.05e5, "S2R+ cell number, rep 1": 8.03e5}
{"gene knocked down": "CG13311", "amplicon": "DRSC09982", "Kc cell number, rep 1": 1.39e6, "Kc cell number, rep 2": 1.74e6, "S2R+ cell number, rep 1": 1.12e6, "S2R+ cell number, rep 2": 1.18e6}
{"gene knocked down": "Mur18B", "amplicon": "DRSC20063", "Kc cell number, rep 1": 1.60e6, "Kc cell number, rep 2": 1.64e6, "S2R+ cell number, rep 1": 1.18e6, "S2R+ cell number, rep 2": 1.33e6}
{"gene knocked down": "Edg84A", "amplicon": "DRSC12594", "Kc cell number, rep 1": 1.47e6, "Kc cell number, rep 2": 1.52e6, "S2R+ cell number, rep 1": 1.32e6, "S2R+ cell number, rep 2": 1.43e6}
{"gene knocked down": "CG8584", "amplicon": "DRSC07217", "Kc cell number, rep 1": 1.63e6, "Kc cell number, rep 2": 1.66e6, "S2R+ cell number, rep 1": 1.29e6, "S2R+ cell number, rep 2": 1.47e6}
{"gene knocked down": "CG9826", "amplicon": "DRSC04570", "Kc cell number, rep 1": 1.67e6, "Kc cell number, rep 2": 1.75e6, "S2R+ cell number, rep 1": 1.39e6, "S2R+ cell number, rep 2": 1.54e6}
{"gene knocked down": "CG30485", "amplicon": "DRSC06376", "Kc cell number, rep 1": 1.67e6, "Kc cell number, rep 2": 1.71e6, "S2R+ cell number, rep 1": 1.41e6, "S2R+ cell number, rep 2": 1.47e6}
{"gene knocked down": "CG9471", "amplicon": "DRSC16499", "Kc cell number, rep 1": 1.68e6, "Kc cell number, rep 2": 1.68e6, "S2R+ cell number, rep 1": 1.25e6, "S2R+ cell number, rep 2": 1.37e6}
{"gene knocked down": "fwe", "amplicon": "DRSC09398", "Kc cell number, rep 1": 1.43e6, "Kc cell number, rep 2": 1.48e6, "S2R+ cell number, rep 1": 1.13e6, "S2R+ cell number, rep 2": 1.31e6}
{"gene knocked down": "fwe", "amplicon": "DRSC10594", "Kc cell number, rep 1": 1.58e6, "Kc cell number, rep 2": 1.55e6, "S2R+ cell number, rep 1": 1.21e6, "S2R+ cell number, rep 2": 1.29e6}
{"gene knocked down": "CG5539", "amplicon": "DRSC04510", "Kc cell number, rep 1": 1.54e6, "Kc cell number, rep 2": 1.65e6, "S2R+ cell number, rep 1": 1.38e6, "S2R+ cell number, rep 2": 1.43e6}
{"gene knocked down": "pea", "amplicon": "DRSC07120", "Kc cell number, rep 1": 1.20e6, "Kc cell number, rep 2": 1.31e6, "S2R+ cell number, rep 1": 8.96e5, "S2R+ cell number, rep 2": 1.01e6}
{"gene knocked down": "CG14095", "amplicon": "DRSC10098", "Kc cell number, rep 1": 1.38e6, "Kc cell number, rep 2": 1.65e6, "S2R+ cell number, rep 1": 1.25e6, "S2R+ cell number, rep 2": 1.30e6}
{"gene knocked down": "se", "amplicon": "DRSC10713", "Kc cell number, rep 1": 1.59e6, "Kc cell number, rep 2": 1.56e6, "S2R+ cell number, rep 1": 1.27e6, "S2R+ cell number, rep 2": 1.20e6}

2 consecutive reagents from above, for reference:
{"gene knocked down": "CG9973 (retired record)", "amplicon": "DRSC08646", "Kc cell number, rep 1": 1.67e6, "Kc cell number, rep 2": 1.03e6, "S2R+ cell number, rep 1": 1.02e6, "S2R+ cell number, rep 2": 1.14e6}
{"gene knocked down": "CG34040", "amplicon": "DRSC03902", "Kc cell number, rep 1": 5.05e5, "S2R+ cell number, rep 1": 8.03e5}
